Measured values reported in patent US8937193B2, “Apogossypolone derivatives as anticancer agents” (Sanford-Burnham Medical Research Institute, priority 2009, dated 2015).
For at least one compound, name, drawing or mass did not settle the structure.

Chains of the proteins cited; added tags and fusions are not shown.
UniProt Q07817, whole entry: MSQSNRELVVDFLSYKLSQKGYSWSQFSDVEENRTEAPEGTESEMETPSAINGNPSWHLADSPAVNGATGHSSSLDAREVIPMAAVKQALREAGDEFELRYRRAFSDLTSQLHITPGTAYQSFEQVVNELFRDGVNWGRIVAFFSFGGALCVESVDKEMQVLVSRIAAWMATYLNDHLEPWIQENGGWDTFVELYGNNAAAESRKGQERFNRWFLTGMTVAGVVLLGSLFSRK

Experiments:
[1] = target: T1, Bcl-XL (Homo sapiens (Human), UniProt Q07817); experiment: 2D [15N,1H]-HSQC NMR binding to 15N-labeled Bcl-XL; details: ligand/protein ratio of 1:1, qualitative
[2] = target: T1, Bcl-XL; experiment: 1D 1H-NMR binding assay against Bcl-XL; set-up: key: +++: Very Active; ++: Active; +: Mild; −: Weak; details: 4-point-rating scale, binding to Bcl-XL

Row | SMILES | binding to Bcl-XL, 2D [15N,1H]-HSQC [1] | 1D-1H NMR [2]
1 | CC1=C(C2=C(C)C(=O)c3c(cc(O)c(O)c3C(=O)NCC(C)c3ccccc3)C2=O)C(=O)c2cc(O)c(O)c(C(=O)NCC(C)c3ccccc3)c2C1=O (stereo not drawn) [Compound 8a, 6,6′,7,7′-Tetrahydroxy-3,3′-dimethyl-1,1′,4,4′-tetraoxo-N^5,N^5′-bis(2-phenylpropyl)-1,1′,4,4′-tetrahydro-2,2′-binaphthyl-5,5′-dicarboxamide] | strong binding | +++
2 | CC1=C(C2=C(C)C(=O)c3c(cc(O)c(O)c3C(=O)Cc3ccccc3)C2=O)C(=O)c2cc(O)c(O)c(C(=O)Cc3ccccc3)c2C1=O [Compound 7, 6,6′,7,7′-Tetrahydroxy-3,3′-dimethyl-5,5′-bis(2-phenylacetyl)-2,2′-binaphthyl-1,1′,4,4′-tetraone] |  | +++
